Where a chain is given by its changes, count along the chain named. No constants are given. Whether binding was seen depends on the method and setting. Some results given as binding are weak or reduced against the parent protein; the word gives no strength.
B1: P282ER9P1360_G10 (designed binder)
chain: LPAPKNLVVSRVTEDSARLSWTAPDAAFDSFAIWYVEQHPFGEAIPLFVPGSERSYDLTGLKPGTEYTVGIRGVKGGNFSTPLIAHFTT
B2: P282DR9P1359_F2 (designed binder)
chain: LPAPKNLVVSRVTEDSARLSWTAPDAAFDSFNIAYPEALHPGYGEAIVLTVPGSERSYDLTGLKPGTEYWVIIGGVKGGQKSWPLSAIFTTGGHHHDHH
B3: P282DR9P1359_H5 (designed binder)
chain: LPAPKNLVVSRVTEDSARLSWTAPDAAFDSFNIAYPEALHPGYGEAIVLTVPGSERSYDLTGLKPGTEYFVVIYGVKGGTNSEPLSAIFTT
B4: P282DR9P1359_A7 (designed binder)
chain: LPAPKNLVVSRVTEDSARLSWTAPDAAFDSFRIGYPELEKLGYGEAIVLTVPGSERSYDLTGLKPGTEYWVIIWGVKGGENSWPLSAIFTT
B5: P282DR9P1359_G7 (designed binder)
chain: B4 chain with R32A, G34T, P36I, L38K, K40H, L41I, G42E, Y43D, I72P, E80A
B6: P282AR9P1356_A6 (designed binder)
chain: LPAPKNLVVSRVTEDSARLSWSKTDSSFDSFLIQYQESEKVGEAIVLTVPGSERSYDLTGLKPGTEYTVSIYGVDVVYIEGNPVFSNPLSAIFTT
B7: P282AR9P1356_D3 (designed binder)
chain: LPAPKNLVVSRVTEDSARLSWTRHETSFDSFLIQYRESEKVGEAIVLTVPGSERSYDLTGLKPGTEYTVSIYGVVVEYDAAGNPKYSNPLSAIFTT
B8: P282ER9P1360_H10 (designed binder)
chain: LPAPKNLVVSRVTEDSARLSWTAPDAAFDSFEIYYPEWPFAGEAIGLPVPGSERSYDLTGLKPGTEYFVVIYGVKGGELSEPLTAQFTT
B9: P282FR9P1361_A3 (designed binder)
chain: LPAPKNLVVSRVTEDSARLSWTAPDAAFDSFDIWYAEYGYPGEAIVLTVPGSERSYDLTGLKPGTEYDVAIVGVKGGNRSYPLSAIFTT
B10: P282CR9P1358_F5 (designed binder)
chain: LPAPKNLVVSRVTEDSARLSWTAPDAAFDSFWISYPEWPPDGEAIVLTVPGSERSYDLTGLKPGTEYFVIIWGVKGGETSAPLSAIFTT
B11: P282DR9P1359_C10 (designed binder)
chain: B10 chain with W32A, S34V, P40T, F68A, I70F, E78N, T79Q, A81W
B12: P282DR9P1359_E6 (designed binder)
chain: B10 chain with S34A, P40V, D41Q, I70V, W72Q, E78T, T79P, A81W
B13: P282DR9P1359_A12 (designed binder)
chain: B10 chain with D25E, W32Q, S34A, D41P, G42R, I70V, W72Q, T79I, A81W
B14: P282DR9P1359_E11 (designed binder)
chain: B10 chain with W32Y, D41V, F68W, W72Y, E78A, T79I, A81T
B15: P282DR9P1359_C11 (designed binder)
chain: B10 chain with W32K, S34A, W38F, D41P, F68Y, W72I, E78T, T79D, A81W
B16: P282DR9P1359_F3 (designed binder)
chain: B10 chain with W32Y, S34T, P40V, D41Q, F68W, W72Y, E78T, T79E, A81E
B17: P282DR9P1359_E8 (designed binder)
chain: B10 chain with W32Q, S34A, P40V, D41I, F68W, W72Q, E78Y, A81W
B18: P282DR9P1359_E5 (designed binder)
chain: B10 chain with W32A, P40V, D41P, W72Y, E78L, T79Y
B19: P282DR9P1359_A8 (designed binder)
chain: B10 chain with W32R, S34A, P40V, D41Q, W72Y, T79L, A81P
B20: P282DR9P1359_F6 (designed binder)
chain: B10 chain with W32D, S34A, P40T, D41T, I70V, E78D, T79H
B21: P282DR9P1359_F5 (designed binder)
chain: B10 chain with W32Q, S34A, D41P, W72Q, E78V, T79E, A81W
B22: P282DR9P1359_D12 (designed binder)
chain: B10 chain with W32R, S34A, W38T, P39A, P40T, D41W, W72Y, E78F, T79E
B23: P282DR9P1359_C12 (designed binder)
chain: B10 chain with W32Y, P40V, D41P, F68W, I70V, W72Y, E78A, T79L, A81V
B24: P282DR9P1359_E3 (designed binder)
chain: B10 chain with W32A, S34A, W38L, P40L, D41G, W72Y, E78V, T79E, A81F
B25: P282DR9P1359_F7 (designed binder)
chain: B10 chain with W32A, S34A, D41Q, I70V, W72Y, E78S, T79Y
B26: P282ER9P1360_A9 (designed binder)
chain: LPAPKNLVVSRVTEDSARLSWTAPDAAFDSFGILYYEPVDSGEAITLPIPGSERSYDLTGLKPGTEYWVVITGVKGGAPSTPLGAIFTT
B27: P282ER9P1360_G7 (designed binder)
chain: B26 chain with I49V, F87L
B28: P282ER9P1360_D11 (designed binder)
chain: B26 chain with I49V, W68F, V70I, T72V, A78Y, T81I, I86A
B29: P282ER9P1360_C1 (designed binder)
chain: B26 chain with A23T, I49V
B30: P282ER9P1360_E4 (designed binder)
chain: B26 chain with I49V, P50L
B31: P282ER9P1360_C8 (designed binder)
chain: B26 chain with I49V, A85T
B32: P282ER9P1360_C4 (designed binder)
chain: B26 chain with L34T, V39N, D40H, S41G, T46S, P48S, I49V, L58P
B33: P282ER9P1360_C6 (designed binder)
chain: B26 chain with P2S
B34: P282FR9P1361_A5 (designed binder)
chain: B26 chain with I49V
B35: P282ER9P1360_H2 (designed binder)
chain: LPAPKNLVVSRVTEDSARLSWTAPDAAFDSFSIAYVEAELVGEAIQLVVPGSERSYDLTGLKPGTEYWVVILGVKGGNPSNPLGASFTTT
B36: P282AR9P1356_H1 (designed binder)
chain: LPAPKNLVVSRVTEDSARLSWIPNPSSFDSFLIQYQESEKVGEAIVLTVPGSERSYDLTGLKPGTEYTVSIYGVDVVFDPVGFPSHSNPLSAIFTT
B37: P282ER9P1360_F11 (designed binder)
chain: LPAPKNLVVSRVTEDSARLSWIAPDAAFDSFSIAYVEAELVGEAIQLVVPGSERSYDLTGLKPGTEYWVVILGVKGGNPSNPLGASFTT
B38: P282ER9P1360_H3 (designed binder)
chain: B37 chain with I22T
B39: P282DR9P1359_B2 (designed binder)
chain: LPAPKNLVVSRVTEDSARLSWTAPDAAFDSFWIAYTEWPIPYEEAGQEGEAIVLTVPGSERSYDLTGLKPGTEYWVSIYGVKGGPNSQPLSAIFTT
B40: P282DR9P1359_E2 (designed binder)
chain: LPAPKNLVVSRVTEDSARLSWTAPDAAFDSFNIFYPEIVTWGEAIVLTVPGSERSYDLTGLKPGTEYWVNIVGVKGGDNSWPLSAIFTT
B41: P282DR9P1359_F11 (designed binder)
chain: B40 chain with N32D, I38L, V39P, T40I, W41H, V72T, N79F
B42: P282CR9P1358_F11 (designed binder)
chain: LPAPKNLVVSRVTEDSARLSWTAPDAAFDSFLIAYPEWPIFEGEAIVLTVPGSERSYDLTGLKPGTEYFVVIYGVKGGEQSSPLSAIFTT
B43: P282DR9P1359_C5 (designed binder)
chain: B42 chain with L32W, A34T, I40D, F41P, E42G, Q80I, S81Y
B44: P282DR9P1359_G4 (designed binder)
chain: LPAPKNLVVSRVTEDSARLSWTAPDAAFDSFEIAYPEWPPPGEAIVLTVPGSERSYDLTGLKPGPEYFVVIQGVKGGDPSFPLSAIFTTGGNHHHHH
B45: P282AR9P1356_B9 (designed binder)
chain: LPAPKNLVVSRVTEDSARLSWPEGDRPFFDSFLIQYQESEKVGEAIVLTVPGSERSYDLTGLKPGTEYTVSIYGVDVKWEGNRPVASNPLSAIFTT

By UniProt entry, the sequences of proteins in these tests, tags left out. Residues count along the entry.
UniProt P01732, residues 22-182: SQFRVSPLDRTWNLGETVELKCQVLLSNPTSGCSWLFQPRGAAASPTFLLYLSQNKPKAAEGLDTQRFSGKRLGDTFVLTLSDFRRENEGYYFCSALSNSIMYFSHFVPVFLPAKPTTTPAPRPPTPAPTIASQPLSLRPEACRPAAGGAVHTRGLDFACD

Molecular target: recombinant human CD8 alpha fused to Fc fragment of human IgG1 (human) (UniProt P01732)
Assay: ELISA, biotinylated CD8W7 or CD8W13

binding | Binder
binds | B1
binds | B2
binds | B3
binds | B4
binds | B5
binds | B6
binds | B7
binds | B8
binds | B9
binds | B10
binds | B11
binds | B12
binds | B13
binds | B14
binds | B15
binds | B16
binds | B17
binds | B18
binds | B19
binds | B20
binds | B21
binds | B22
binds | B23

binding | Binder
binds | B24
binds | B25
binds | B26
binds | B27
binds | B28
binds | B29
binds | B30
binds | B31
binds | B32
binds | B33
binds | B34
binds | B35
binds | B36
binds | B37
binds | B38
binds | B39
binds | B40
binds | B41
binds | B42
binds | B43
binds | B44
binds | B45

Reference: US20210032312A1
